According to PubChem BioAssay AID2685 (National Center for Advancing Translational Sciences (NCATS), 2010):
This is one part of the list. These are further read-outs of the screen, such as a control signal, another cell line or another target. No call is given for them. Most of these compounds were active or inconclusive in the main read-out, so they are no random draw. Potencies come from curve fits of mixed quality, noted in brackets.

Assay: qHTS Assay for Lipid Storage Modulators in Drosophila S3 Cells;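 on cell number change: cells counted by Cell Tracker Red CMTPX staining in the red channel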
Details: BODIPY lipid droplet fluorescence, 18-24 h; for cell number change: measured here: cell count max response, cells fed with added oleic acid
Summary of the method: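 Drosophila S3 cells got compounds at several concentrations plus oleic acid (400 uM solution). Laser-scanning cytometry with 488 nm excitation read lipid droplets at 500-530 nm and cells at 575-640 nm. Percent activity was relative to 20 uM Triacsin C.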

[1] = measured here: cell number channel AC50, cells fed with added oleic acid
[2] = measured here: lipid fluorescence (Fed channel) AC50, cells fed with added oleic acid

| Compound | cell number change | AC50 [1] | AC50 [2] |
| --- | --- | --- | --- |
| COCC(C)n1c(-c2ccc3c(c2)NC(=O)CO3)csc1=Nc1ccc(OC(F)F)cc1 (configuration not stated) | 7.17% | 2.31 µM [rising, partial curve] | 4.11 µM [rising, partial curve] |
| C=CCNC(=O)C1CCN(S(=O)(=O)CC)CC1 | 101% | – | – |
| O=C1c2ccccc2NC2(CCCCC2)N1c1ccc(O)cc1 | 6.12% | – | 0.259 µM [falling, full curve] |
| COc1ccc(-c2ocnc2C(=O)N2CCN(C(c3ccccc3)c3ccccc3)CC2)cc1 | 8.79% | – | 0.164 µM [rising, full curve, poor fit] |
| COc1cc(C(=O)Nc2cccc(S(=O)(=O)N3CCCC3)c2)c([N+](=O)[O-])cc1OC | -1.6% | – | 6.51 µM [rising, single point] |
| O=C(CSc1ncc(C(F)(F)F)cc1Cl)N1CCN(S(=O)(=O)c2ccc3ccccc3c2)CC1 | 33.8% | 1.64 µM [rising, full curve, poor fit] | – |
| Cc1ccccc1COC(=O)CCC1=NS(=O)(=O)c2ccccc2N1 | -48.2% | 20.6 µM [falling, single point] | – |
| Cn1c(-c2ccccc2)cc(=O)c2ccccc21 | – | – | 6.51 µM [rising, single point] |
| c1ccc(Sc2nc(N3CCCCC3)nc(N3CCCCC3)n2)nc1 | -34.2% | – | 14.6 µM [falling, partial curve] |
| CCC(C(=O)OCCOCCN(CC)CC)c1ccccc1 (configuration not stated) | -28.1% | – | – |
| Cc1cc(OCC(=O)O/N=C(\N)c2ccccc2)cc(C)c1Cl | -17.4% | – | 29.1 µM [falling, single point] |
| CC1CC(C)CN(C(=O)c2cccc(S(=O)(=O)Nc3cc(C(F)(F)F)ccc3Cl)c2)C1 (configuration not stated) | -15.9% | – | 5.8 µM [falling, single point] |
| N/C(=N\OC(=O)N1CCOCC1)c1ccc(Cl)cc1 | -18.6% | – | 0.0291 µM [falling, full curve, poor fit] |
| COc1ccc(N(S(=O)(=O)c2ccccc2)S(=O)(=O)c2ccccc2)c(N)c1 | 12.6% | 0.326 µM [rising, partial curve, poor fit] | – |
| CCOC(=O)Nc1sc(NS(=O)(=O)c2ccccc2)nc1C | 11.4% | – | 2.59 µM [rising, single point] |
| CC1(C)Oc2ccc(C(=O)N3CCOCC3)cc2N(CC(=O)N2CCOCC2)C1=O | -27.4% | 0.0291 µM [falling, full curve, poor fit] | 4.61 µM [falling, single point] |
| COc1ccc2oc(C(=O)OCC(=O)N(C)CC(=O)Nc3ccc(C)cc3)c(C)c2c1 | 38.8% | 29.1 µM [rising, single point] | 20.6 µM [falling, single point] |
| Cc1cccc2sc(NNC(=O)c3ccc4c(c3)OCCO4)nc12 | 3.49% | – | 29.1 µM [rising, single point] |
| Fc1ccc2nc(Nc3nc4c(F)cc(F)cc4s3)sc2c1 | -45.1% | 29.1 µM [falling, single point] | – |
| Cc1cccc(S(=O)(=O)NCCC(=O)OCC(=O)Nc2ccc(C#N)cc2)c1 | -1.8% | – | 29.1 µM [rising, single point] |

| Compound | cell number change | AC50 [1] | AC50 [2] |
| --- | --- | --- | --- |
| C/C(=N\NC(=O)CC#N)c1cc2ccc(O)cc2oc1=O | -40% | – | – |
| O=C(C[n+]1ccccc1)NNc1ccccc1 | 18.9% | 0.82 µM [rising, full curve, poor fit] | 0.82 µM [rising, full curve, poor fit] |
| Cc1ccc(NC(=O)Nc2ccon2)cc1 | 2.21% | – | – |
| Cc1cccc(NC(=O)C2Cc3ccccc3CN2C(=O)OCc2ccccc2)c1C (configuration not stated) | -45.1% | 29.1 µM [falling, single point] | – |
| O=C(NCc1cccnc1)NC(C(F)(F)F)C(F)(F)F | -9.01% | – | – |
| Cc1c(NC(=O)N2CCCCCC2)c(=O)n(-c2ccccc2)n1C | -23% | 3.66 µM [falling, full curve, poor fit] | 29.1 µM [falling, single point] |
| Cc1ccc(S(=O)(=O)N2CCN(C(=O)COC(=O)/C=C/c3ccccc3F)CC2)c(C)c1 | 5.94% | – | 29.1 µM [rising, partial curve, poor fit] |
| O=S(=O)(O)c1nnc2sc3ccccc3n12 | 11.4% | – | – |
| O=C(CN(c1ccc(Br)cc1)S(=O)(=O)c1ccc(Cl)c([N+](=O)[O-])c1)NCCc1ccccc1 | -20.4% | – | – |
| COC(=O)c1ccc(NC(=S)NC(=O)c2c(Cl)cnn2C)cc1 | -30.2% | 0.731 µM [rising, full curve] | – |
| Cc1cc(S(=O)(=O)N2CCC3(CC2)OCCN3S(=O)(=O)c2cccs2)ccc1F | 11.4% | – | – |
| Cn1cccc1/C=N/N1CCN(Cc2cccc3ccccc23)CC1 | – | 0.13 µM [rising, partial curve, poor fit] | – |
| COc1cc(C(=O)Oc2cccc(C=O)c2)cc(OC)c1OC | -4.85% | 2.59 µM [falling, single point] | – |
| C/C(=C1/SC(=S)N(CCC(=O)O)C1=O)c1ccc(O)cc1 | -7.93% | – | – |
| O=C(NCC(=O)N(c1ccc(F)cc1)C(C(=O)NC1CCCC1)c1ccncc1)c1ccco1 (configuration not stated) | -0.952% | – | – |
| COc1ccc2c(c1)C(=O)N(c1ccccc1)C(=O)C2 | – | – | 13 µM [falling, partial curve, poor fit] |
| O=C(CN1C(=O)NC2(CCCC2)C1=O)Nc1nc(-c2ccc(F)c(F)c2)cs1 | -2.06% | – | 0.082 µM [falling, partial curve, poor fit] |
| c1ccc(-c2nn3c(C4CCCCC4)nnc3s2)nc1 | 8.39% | – | 29.1 µM [rising, partial curve, poor fit] |
| Cc1ccc(S(=O)(=O)Cn2nnnc2C(CC(C)C)N2CCN(C(=O)c3ccco3)CC2)cc1 (configuration not stated) | -28.8% | – | 11.6 µM [falling, partial curve] |
| Cc1cc(C)nc(SCc2cc(=O)c(OC(=O)c3ccc(S(=O)(=O)N4CCCC4)cc3)co2)n1 | 20.1% | – | 14.6 µM [rising, partial curve, poor fit] |

Record cards, from the list above:
O=C(NCc1cccnc1)NC(C(F)(F)F)C(F)(F)F as listed: cell number change: -9.01%
c1ccc(-c2nn3c(C4CCCCC4)nnc3s2)nc1 as listed: cell number change: 8.39%; AC50 [2]: 29.1 µM [rising, partial curve, poor fit]
